Assay results published in the supplement of paper PMC10849652.
The other results are listed elsewhere or left out.

The chains behind the UniProt entries cited, without tags or fusion partners. Where a name states a change or a piece, a line headed by the entry shows the natural chain unless it says otherwise.
UniProt Q9UMR5: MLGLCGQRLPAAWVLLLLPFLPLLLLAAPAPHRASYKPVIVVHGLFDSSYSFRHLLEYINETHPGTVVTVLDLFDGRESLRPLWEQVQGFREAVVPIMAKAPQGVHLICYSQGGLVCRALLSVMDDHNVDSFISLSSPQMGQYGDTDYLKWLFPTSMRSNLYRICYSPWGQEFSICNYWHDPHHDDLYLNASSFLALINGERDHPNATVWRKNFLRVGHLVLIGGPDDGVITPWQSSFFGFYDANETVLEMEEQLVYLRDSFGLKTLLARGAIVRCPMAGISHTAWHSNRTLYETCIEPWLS
UniProt Q8TAP8: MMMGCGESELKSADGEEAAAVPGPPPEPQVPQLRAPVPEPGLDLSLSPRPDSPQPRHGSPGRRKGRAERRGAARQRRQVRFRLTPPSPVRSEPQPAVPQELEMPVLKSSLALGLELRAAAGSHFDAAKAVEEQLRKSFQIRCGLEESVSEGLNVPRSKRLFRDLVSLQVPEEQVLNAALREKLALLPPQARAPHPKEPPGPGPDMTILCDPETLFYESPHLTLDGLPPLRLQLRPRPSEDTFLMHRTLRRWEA
UniProt P30044: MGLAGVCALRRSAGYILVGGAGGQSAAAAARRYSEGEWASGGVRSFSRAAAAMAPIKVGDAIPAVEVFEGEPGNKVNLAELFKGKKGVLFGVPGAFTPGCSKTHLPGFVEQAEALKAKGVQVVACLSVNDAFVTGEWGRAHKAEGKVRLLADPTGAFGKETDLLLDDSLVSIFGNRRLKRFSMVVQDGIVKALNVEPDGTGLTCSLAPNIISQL
UniProt P54619: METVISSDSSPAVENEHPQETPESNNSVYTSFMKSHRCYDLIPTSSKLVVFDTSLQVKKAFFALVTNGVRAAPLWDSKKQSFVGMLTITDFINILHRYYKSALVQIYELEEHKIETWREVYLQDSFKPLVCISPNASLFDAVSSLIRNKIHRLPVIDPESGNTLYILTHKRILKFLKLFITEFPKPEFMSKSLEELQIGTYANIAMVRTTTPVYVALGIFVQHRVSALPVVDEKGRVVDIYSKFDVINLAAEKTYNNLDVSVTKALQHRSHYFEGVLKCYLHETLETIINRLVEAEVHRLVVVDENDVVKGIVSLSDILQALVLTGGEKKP
UniProt Q5MIZ7: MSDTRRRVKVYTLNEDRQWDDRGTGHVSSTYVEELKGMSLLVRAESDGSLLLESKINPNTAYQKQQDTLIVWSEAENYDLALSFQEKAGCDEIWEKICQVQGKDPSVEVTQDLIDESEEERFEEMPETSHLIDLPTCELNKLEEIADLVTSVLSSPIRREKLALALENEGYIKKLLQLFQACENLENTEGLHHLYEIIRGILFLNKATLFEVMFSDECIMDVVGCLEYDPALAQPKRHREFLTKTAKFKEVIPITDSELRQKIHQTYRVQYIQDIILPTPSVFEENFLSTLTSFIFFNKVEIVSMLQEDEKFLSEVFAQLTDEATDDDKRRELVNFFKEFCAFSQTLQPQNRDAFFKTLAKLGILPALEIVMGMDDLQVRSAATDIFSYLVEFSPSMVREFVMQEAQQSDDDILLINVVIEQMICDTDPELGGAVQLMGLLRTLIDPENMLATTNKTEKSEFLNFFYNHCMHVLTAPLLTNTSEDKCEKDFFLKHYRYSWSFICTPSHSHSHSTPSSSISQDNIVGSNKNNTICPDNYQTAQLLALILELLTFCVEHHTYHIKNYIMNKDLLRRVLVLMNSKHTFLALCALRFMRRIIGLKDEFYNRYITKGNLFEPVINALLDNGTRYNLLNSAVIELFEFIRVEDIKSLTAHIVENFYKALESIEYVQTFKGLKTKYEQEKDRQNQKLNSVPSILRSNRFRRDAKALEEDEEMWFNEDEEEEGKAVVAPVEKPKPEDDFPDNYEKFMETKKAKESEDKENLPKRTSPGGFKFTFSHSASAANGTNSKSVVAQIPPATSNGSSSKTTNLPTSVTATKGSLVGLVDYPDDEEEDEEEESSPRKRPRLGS
UniProt O60927: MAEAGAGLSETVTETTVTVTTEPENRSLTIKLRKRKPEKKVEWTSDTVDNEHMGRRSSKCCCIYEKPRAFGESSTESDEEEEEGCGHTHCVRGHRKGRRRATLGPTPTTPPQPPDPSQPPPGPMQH
UniProt P05771, whole entry, looked up: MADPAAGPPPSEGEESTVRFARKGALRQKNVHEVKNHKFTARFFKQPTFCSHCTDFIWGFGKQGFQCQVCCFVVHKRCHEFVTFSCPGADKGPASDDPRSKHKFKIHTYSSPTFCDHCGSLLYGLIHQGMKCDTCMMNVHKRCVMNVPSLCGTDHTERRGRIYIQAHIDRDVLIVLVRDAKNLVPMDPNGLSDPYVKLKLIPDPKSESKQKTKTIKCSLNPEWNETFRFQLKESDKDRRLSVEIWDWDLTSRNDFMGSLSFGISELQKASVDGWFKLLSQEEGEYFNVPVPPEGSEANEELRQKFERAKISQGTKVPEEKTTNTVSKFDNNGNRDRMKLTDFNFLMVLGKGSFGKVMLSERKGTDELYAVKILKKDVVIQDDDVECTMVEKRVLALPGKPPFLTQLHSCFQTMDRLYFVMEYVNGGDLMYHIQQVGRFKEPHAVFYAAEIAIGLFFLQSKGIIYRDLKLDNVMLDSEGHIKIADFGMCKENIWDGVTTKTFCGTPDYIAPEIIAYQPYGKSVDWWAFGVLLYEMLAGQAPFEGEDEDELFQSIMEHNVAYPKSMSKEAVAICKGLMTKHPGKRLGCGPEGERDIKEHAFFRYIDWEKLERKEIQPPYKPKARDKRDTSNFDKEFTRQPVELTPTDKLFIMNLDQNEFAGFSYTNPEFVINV
UniProt Q8NAV1: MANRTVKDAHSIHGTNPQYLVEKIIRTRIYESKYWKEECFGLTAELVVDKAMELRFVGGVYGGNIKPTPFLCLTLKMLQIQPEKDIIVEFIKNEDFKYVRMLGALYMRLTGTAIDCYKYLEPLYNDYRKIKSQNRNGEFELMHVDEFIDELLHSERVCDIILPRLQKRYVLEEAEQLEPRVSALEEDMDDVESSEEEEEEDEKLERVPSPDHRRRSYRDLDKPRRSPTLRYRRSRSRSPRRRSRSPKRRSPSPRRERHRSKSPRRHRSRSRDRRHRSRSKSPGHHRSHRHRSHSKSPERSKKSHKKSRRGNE
UniProt Q9UPN7: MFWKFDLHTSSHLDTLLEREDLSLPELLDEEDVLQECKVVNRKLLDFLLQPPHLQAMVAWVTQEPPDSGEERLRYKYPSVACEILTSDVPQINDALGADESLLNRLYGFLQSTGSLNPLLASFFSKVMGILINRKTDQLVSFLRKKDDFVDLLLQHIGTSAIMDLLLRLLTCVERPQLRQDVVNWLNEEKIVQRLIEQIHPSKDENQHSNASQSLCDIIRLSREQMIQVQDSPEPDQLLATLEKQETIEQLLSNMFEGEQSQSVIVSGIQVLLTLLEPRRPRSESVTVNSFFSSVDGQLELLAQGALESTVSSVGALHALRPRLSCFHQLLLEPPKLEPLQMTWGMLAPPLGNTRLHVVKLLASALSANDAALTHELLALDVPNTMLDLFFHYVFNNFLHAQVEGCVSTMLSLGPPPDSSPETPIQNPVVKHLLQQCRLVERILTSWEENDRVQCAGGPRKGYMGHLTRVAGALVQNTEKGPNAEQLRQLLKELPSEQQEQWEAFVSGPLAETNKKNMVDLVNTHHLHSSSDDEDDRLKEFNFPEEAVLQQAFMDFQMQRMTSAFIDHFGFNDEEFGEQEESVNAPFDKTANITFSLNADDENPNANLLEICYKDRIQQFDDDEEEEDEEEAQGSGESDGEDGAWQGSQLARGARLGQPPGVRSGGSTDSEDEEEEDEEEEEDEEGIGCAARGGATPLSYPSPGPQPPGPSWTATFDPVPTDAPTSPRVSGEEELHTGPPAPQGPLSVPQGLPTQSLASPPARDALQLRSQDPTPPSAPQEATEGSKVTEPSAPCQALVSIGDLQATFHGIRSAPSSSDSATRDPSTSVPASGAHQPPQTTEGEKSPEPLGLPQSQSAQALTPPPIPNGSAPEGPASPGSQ
UniProt P48454, whole entry, looked up: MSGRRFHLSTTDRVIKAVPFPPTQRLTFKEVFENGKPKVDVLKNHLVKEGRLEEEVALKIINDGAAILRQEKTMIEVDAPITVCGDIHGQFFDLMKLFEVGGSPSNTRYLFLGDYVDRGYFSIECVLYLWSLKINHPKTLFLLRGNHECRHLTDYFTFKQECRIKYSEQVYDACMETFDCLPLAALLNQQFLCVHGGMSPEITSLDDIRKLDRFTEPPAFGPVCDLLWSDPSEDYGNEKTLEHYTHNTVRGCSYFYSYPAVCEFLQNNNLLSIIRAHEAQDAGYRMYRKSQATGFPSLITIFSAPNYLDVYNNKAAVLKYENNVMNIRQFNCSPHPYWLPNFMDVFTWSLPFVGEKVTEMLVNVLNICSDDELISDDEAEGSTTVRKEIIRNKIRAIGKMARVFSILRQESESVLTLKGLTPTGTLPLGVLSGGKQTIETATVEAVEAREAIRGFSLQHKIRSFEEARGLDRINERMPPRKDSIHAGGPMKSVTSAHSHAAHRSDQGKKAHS
UniProt Q8WUF5: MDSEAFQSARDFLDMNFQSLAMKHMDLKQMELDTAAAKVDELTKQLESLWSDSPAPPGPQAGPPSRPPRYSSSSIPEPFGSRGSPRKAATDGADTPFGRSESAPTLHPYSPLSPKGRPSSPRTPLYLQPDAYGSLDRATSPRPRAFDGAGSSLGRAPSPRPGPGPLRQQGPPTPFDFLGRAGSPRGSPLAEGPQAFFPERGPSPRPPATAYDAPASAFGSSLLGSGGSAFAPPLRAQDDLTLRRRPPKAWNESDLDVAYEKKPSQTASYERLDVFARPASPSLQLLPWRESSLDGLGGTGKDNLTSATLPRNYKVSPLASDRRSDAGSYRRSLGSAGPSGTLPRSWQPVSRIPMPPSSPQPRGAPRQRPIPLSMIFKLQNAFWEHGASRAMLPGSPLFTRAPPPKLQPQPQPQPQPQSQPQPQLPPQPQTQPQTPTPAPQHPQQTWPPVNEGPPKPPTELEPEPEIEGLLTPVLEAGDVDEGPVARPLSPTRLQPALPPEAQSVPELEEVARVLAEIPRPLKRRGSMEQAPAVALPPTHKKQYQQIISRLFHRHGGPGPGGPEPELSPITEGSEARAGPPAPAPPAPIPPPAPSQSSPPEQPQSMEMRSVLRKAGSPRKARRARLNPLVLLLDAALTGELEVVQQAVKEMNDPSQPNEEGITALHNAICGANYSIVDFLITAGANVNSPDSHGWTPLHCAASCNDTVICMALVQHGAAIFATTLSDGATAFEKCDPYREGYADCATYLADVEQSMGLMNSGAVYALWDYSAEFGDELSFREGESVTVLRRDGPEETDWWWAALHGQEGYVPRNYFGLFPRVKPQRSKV
UniProt Q96LA8, whole entry, looked up: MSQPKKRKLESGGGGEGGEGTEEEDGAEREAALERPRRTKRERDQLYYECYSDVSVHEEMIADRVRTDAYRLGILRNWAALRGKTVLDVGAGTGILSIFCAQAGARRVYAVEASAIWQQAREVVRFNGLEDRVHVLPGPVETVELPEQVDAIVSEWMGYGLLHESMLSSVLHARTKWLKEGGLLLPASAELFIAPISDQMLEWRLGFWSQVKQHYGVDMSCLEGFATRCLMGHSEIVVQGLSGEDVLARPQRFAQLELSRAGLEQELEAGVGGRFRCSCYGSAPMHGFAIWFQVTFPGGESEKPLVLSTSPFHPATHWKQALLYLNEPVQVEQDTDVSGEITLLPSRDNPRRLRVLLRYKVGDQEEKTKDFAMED
UniProt Q16537, whole entry, looked up: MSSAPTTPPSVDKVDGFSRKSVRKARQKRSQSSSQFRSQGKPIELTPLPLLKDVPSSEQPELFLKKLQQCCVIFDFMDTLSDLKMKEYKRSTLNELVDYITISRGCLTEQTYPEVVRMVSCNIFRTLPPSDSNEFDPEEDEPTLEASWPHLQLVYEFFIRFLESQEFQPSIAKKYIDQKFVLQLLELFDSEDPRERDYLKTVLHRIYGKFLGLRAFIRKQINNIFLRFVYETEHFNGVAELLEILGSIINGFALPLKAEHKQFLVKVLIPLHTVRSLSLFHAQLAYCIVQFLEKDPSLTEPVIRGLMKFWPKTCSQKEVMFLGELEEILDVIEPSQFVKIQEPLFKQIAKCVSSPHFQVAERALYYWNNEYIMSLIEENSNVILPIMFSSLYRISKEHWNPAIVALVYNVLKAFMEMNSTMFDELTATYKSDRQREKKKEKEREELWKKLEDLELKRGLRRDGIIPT
UniProt Q969Q6: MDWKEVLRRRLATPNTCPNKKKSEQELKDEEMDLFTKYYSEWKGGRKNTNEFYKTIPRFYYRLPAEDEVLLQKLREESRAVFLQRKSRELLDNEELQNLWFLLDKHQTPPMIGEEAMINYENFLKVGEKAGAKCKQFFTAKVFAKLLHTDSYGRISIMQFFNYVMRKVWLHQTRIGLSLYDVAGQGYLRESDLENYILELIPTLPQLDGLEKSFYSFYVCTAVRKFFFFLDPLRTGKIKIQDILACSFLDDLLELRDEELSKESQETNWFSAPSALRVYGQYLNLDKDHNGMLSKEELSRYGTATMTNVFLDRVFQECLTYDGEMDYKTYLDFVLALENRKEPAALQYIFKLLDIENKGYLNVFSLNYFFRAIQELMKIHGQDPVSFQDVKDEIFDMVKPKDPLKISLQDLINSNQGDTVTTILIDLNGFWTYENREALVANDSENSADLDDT

What was measured:
Test in all cases: log2 fold change, soluble protein after heating vs DMSO (PISA); higher = thermal stabilisation; K562 cells, 10 uM, 30 min; active = over 0.2 and 3.5 SD of the protein, either way, in both replicates (recomputed)
[1] = compound: CC[C@@H]1C(=O)N(C)c2cnc(Nc3ccc(C(=O)NC4CCN(C)CC4)cc3OC)nc2N1C1CCCC1
Procedure, shortened: (§1)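 For each measurement, 10 μM compound was applied for 30 min to K562 cells at 2×10^6 cells/mL. Aliquots were heated for 3 min across 48°C-58°C, pooled, and extracted in PBS with 0.5% NP-40 at 4°C; the supernatant after 21,000xg for 90 min was soluble protein. This was quantified by TMTpro 16plex LC-MS/MS with channel sums equalised, and thermal stability was reported relative to control samples from duplicates, on a log2 fold-change scale.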

volasertib = compound: CC[C@@H]1C(=O)N(C)c2cnc(Nc3ccc(C(=O)N[C@H]4CC[C@H](N5CCN(CC6CC6)CC5)CC4)cc3OC)nc2N1C(C)C [volasertib]
Procedure, shortened: as §1

[2] = compound: CC[C@H](C)N1C=C(C2=C(C=C(C=C21)C3=CN=C(C=C3)N4CCNCC4)C(=O)NCC5=C(C=C(NC5=O)C)C)C
Procedure, shortened: as §1

epoxomicin = compound: CC[C@H](C)[C@@H](C(=O)N[C@@H]([C@@H](C)O)C(=O)N[C@@H](CC(C)C)C(=O)[C@]1(CO1)C)NC(=O)[C@H]([C@@H](C)CC)N(C)C(=O)C [epoxomicin]
Procedure, shortened: as §1

[3] = compound: CCn1cc(-c2ccnc3[nH]c(-c4cccc(CN(C)C)c4)cc23)c(-c2ccc(NC(=O)N(C)C)cc2)n1
Procedure, shortened: as §1

[4] = compound: CN(C)CC(=O)Nc1ccc2[nH]c(=O)c3ccccc3c2c1
Procedure, shortened: as §1

[5] = compound: CN1C2=C(C3=C1C(=O)N(N=C3)CC4=CC(=CC=C4)N)SC(=C2)S(=O)C
Procedure, shortened: as §1

[6] = compound: CN1CCC(CNc2ccc3ncc(-c4cccc(OC(F)(F)F)c4)n3n2)CC1
Procedure, shortened: as §1

saracatinib = compound: CN1CCN(CCOc2cc(OC3CCOCC3)c3c(Nc4c(Cl)ccc5c4OCO5)ncnc3c2)CC1 [saracatinib]
Procedure, shortened: as §1

sotrastaurin = compound: CN1CCN(c2nc(C3=C(c4c[nH]c5ccccc45)C(=O)NC3=O)c3ccccc3n2)CC1 [sotrastaurin]
Procedure, shortened: as §1

Tubastatin A = compound: CN1CCc2c(c3ccccc3n2Cc2ccc(C(=O)NO)cc2)C1 [Tubastatin A]
Procedure, shortened: as §1

[7] = compound: CNC(=O)C1=CC=CC=C1NC2=NC(=NC=C2Cl)NC3=C(C=C(C=C3)N4CCOCC4)OC
Procedure, shortened: as §1

defactinib = compound: CNC(=O)c1ccc(Nc2ncc(C(F)(F)F)c(NCc3nccnc3N(C)S(C)(=O)=O)n2)cc1 [defactinib]
Procedure, shortened: as §1

rucaparib = compound: CNCc1ccc(-c2[nH]c3cc(F)cc4c3c2CCNC4=O)cc1 [rucaparib]
Procedure, shortened: as §1

[8] = compound: CNc1nc(-c2ccc3c(N)n[nH]c3c2)cc(N2C[C@@H](C(=O)NC3CCCCC3)CC[C@H]2C)n1
Procedure, shortened: as §1

encorafenib = compound: COC(=O)N[C@@H](C)CNc1nccc(-c2cn(C(C)C)nc2-c2cc(Cl)cc(NS(C)(=O)=O)c2F)n1 [encorafenib]
Procedure, shortened: as §1

[9] = compound: COC(=O)[C@H](CCSC)NC(=O)C1=C(C=C(C=C1)NC[C@H](CS)N)C2=CC=CC=C2
Procedure, shortened: as §1

[10] = compound: CCn1c(C(=O)N(C2CC2)C2CC2)cc2c3c(ncn3C)c(Nc3cc(C)n(C)n3)nc21
Procedure, shortened: as §1

rosiglitazone = compound: CN(CCOC1=CC=C(C=C1)C[C@H]2C(=O)NC(=O)S2)C3=CC=CC=N3 (racemic) [rosiglitazone]
Procedure, shortened: as §1

alvocidib = compound: CN1CC[C@H](c2c(O)cc(O)c3c(=O)cc(-c4ccccc4Cl)oc23)[C@H](O)C1 [alvocidib]
Procedure, shortened: as §1

Measured: log2 fold change

PPT2 isoform 3 (UniProt Q9UMR5)
inactive: [2] -0.006 | epoxomicin -0.021 | [3] 0.206 | [4] -0.068 | [5] -0.051 | saracatinib 0.042 | sotrastaurin 0.022 | Tubastatin A 0.018 | [7] 0 | defactinib -0.023 | rucaparib 0.025 | [8] 0.038 | encorafenib -0.003 | [9] 0.029
active: [1] -0.57 | volasertib -0.87 | [6] -0.682

PPP1R35 (UniProt Q8TAP8)
inactive: [1] 0.062 | volasertib 0.101 | [2] -0.062 | epoxomicin 0.062 | [3] 0.007 | [4] -0.004 | [5] 0.027 | [6] -0.032 | saracatinib 0.034 | sotrastaurin -0.011 | Tubastatin A 0.035 | [7] -0.029 | defactinib -0.007 | rucaparib 0.019 | [8] -0.109 | encorafenib 0.072 | [9] 0.052

PRDX5 (UniProt P30044)
inactive: [1] 0.029 | volasertib 0.064 | [2] -0.025 | epoxomicin -0.02 | [10] 0.038 | [3] 0.047 | [4] -0.016 | rosiglitazone 0 | [5] -0.004 | [6] -0.058 | saracatinib 0.062 | sotrastaurin 0.029 | alvocidib 0.004 | Tubastatin A -0.003 | [7] -0.018 | defactinib -0.015 | rucaparib 0.005 | [8] -0.034 | encorafenib -0.017 | [9] 0.019

PRMT3 (UniProt O60678)
active: volasertib -0.411 | [6] -0.953
inactive: [1] -0.126 | [2] 0.039 | epoxomicin 0.033 | [3] -0.093 | [4] 0.039 | [5] -0.008 | saracatinib 0.021 | sotrastaurin -0.046 | Tubastatin A -0.017 | [7] 0.058 | defactinib -0.005 | rucaparib 0.035 | [8] 0.011 | encorafenib 0.061 | [9] -0.064

PRKAG1 isoform 3 (UniProt P54619)
active: [6] -0.299
inactive: [1] -0.018 | volasertib -0.207 | [2] 0.048 | epoxomicin -0.024 | [3] -0.033 | [4] -0.015 | [5] -0.009 | saracatinib -0.016 | sotrastaurin 0.04 | Tubastatin A 0.01 | [7] -0.184 | defactinib -0.081 | rucaparib -0.005 | [8] -0.026 | encorafenib 0.026 | [9] -0.014

PPP4R3B (UniProt Q5MIZ7)
inactive: [1] -0.052 | [2] 0.05 | epoxomicin -0.011 | [3] -0.074 | [4] -0.001 | [5] -0.074 | [6] -0.15 | saracatinib -0.008 | sotrastaurin -0.05 | Tubastatin A 0.022 | [7] 0.057 | defactinib -0.023 | rucaparib -0.065 | [8] -0.033 | encorafenib 0.014 | [9] 0.003
active: volasertib -0.284

PPP1R11 (UniProt O60927)
inactive: [1] 0.019 | volasertib 0 | [2] 0.023 | epoxomicin 0.064 | [10] -0.015 | [3] -0.006 | [4] -0.012 | rosiglitazone -0.014 | [5] -0.027 | [6] -0.067 | saracatinib 0.104 | sotrastaurin 0.05 | alvocidib 0.138 | Tubastatin A -0.167 | [7] 0.004 | defactinib 0.004 | rucaparib -0.026 | [8] 0.023 | encorafenib 0 | [9] 0.143

PRKACA (UniProt P17612)
inactive: [1] -0.028 | volasertib -0.046 | [2] 0.068 | epoxomicin -0.072 | [3] -0.058 | [4] 0 | [5] -0.003 | [6] 0.085 | saracatinib 0.002 | sotrastaurin -0.117 | Tubastatin A 0.054 | [7] -0.104 | defactinib -0.015 | rucaparib 0.061 | [8] 0.077 | encorafenib 0.01 | [9] 0.072

PRKCB isoform 2 (UniProt P05771)
inactive: [1] -0.068 | [2] 0.04 | epoxomicin 0.03 | [3] -0.06 | [4] 0.006 | [5] -0.054 | [6] -0.135 | saracatinib -0.006 | Tubastatin A -0.004 | [7] 0.012 | defactinib -0.03 | rucaparib 0.001 | [8] -0.03 | encorafenib 0.031 | [9] -0.001
active: volasertib -0.213 | sotrastaurin -0.343

PRKCE (UniProt Q02156)
active: sotrastaurin -0.425
inactive: [1] -0.051 | volasertib -0.125 | [2] 0.099 | epoxomicin 0.036 | [3] -0.067 | [4] 0.036 | [5] -0.106 | [6] -0.16 | saracatinib -0.02 | Tubastatin A -0.052 | [7] 0.075 | defactinib -0.133 | rucaparib -0.043 | [8] 0.006 | encorafenib 0.037 | [9] -0.06

PPP2R5C isoform 5 (UniProt Q13362)
inactive: [1] -0.12 | [2] 0.019 | epoxomicin 0.06 | [3] -0.009 | [4] -0.023 | [5] -0.027 | [6] -0.203 | saracatinib 0.007 | sotrastaurin -0.018 | Tubastatin A 0.014 | [7] -0.02 | defactinib -0.044 | rucaparib -0.019 | [8] 0.023 | encorafenib 0.126 | [9] -0.042
active: volasertib -0.429

Taken from the results shown (4 entries):
PRKAG1 isoform 3 (UniProt P54619)
active: [6] -0.299
inactive: [1] -0.018 | volasertib -0.207 | [2] 0.048 | epoxomicin -0.024 | [3] -0.033 | [4] -0.015 | [5] -0.009 | saracatinib -0.016 | sotrastaurin 0.04 | Tubastatin A 0.01 | [7] -0.184 | defactinib -0.081 | rucaparib -0.005 | [8] -0.026 | encorafenib 0.026 | [9] -0.014

PPP4R3B (UniProt Q5MIZ7)
inactive: [1] -0.052 | [2] 0.05 | epoxomicin -0.011 | [3] -0.074 | [4] -0.001 | [5] -0.074 | [6] -0.15 | saracatinib -0.008 | sotrastaurin -0.05 | Tubastatin A 0.022 | [7] 0.057 | defactinib -0.023 | rucaparib -0.065 | [8] -0.033 | encorafenib 0.014 | [9] 0.003
active: volasertib -0.284

PPP1R11 (UniProt O60927)
inactive: [1] 0.019 | volasertib 0 | [2] 0.023 | epoxomicin 0.064 | [10] -0.015 | [3] -0.006 | [4] -0.012 | rosiglitazone -0.014 | [5] -0.027 | [6] -0.067 | saracatinib 0.104 | sotrastaurin 0.05 | alvocidib 0.138 | Tubastatin A -0.167 | [7] 0.004 | defactinib 0.004 | rucaparib -0.026 | [8] 0.023 | encorafenib 0 | [9] 0.143

PRKACA (UniProt P17612)
inactive: [1] -0.028 | volasertib -0.046 | [2] 0.068 | epoxomicin -0.072 | [3] -0.058 | [4] 0 | [5] -0.003 | [6] 0.085 | saracatinib 0.002 | sotrastaurin -0.117 | Tubastatin A 0.054 | [7] -0.104 | defactinib -0.015 | rucaparib 0.061 | [8] 0.077 | encorafenib 0.01 | [9] 0.072

(list continues)

PRPF38A (UniProt Q8NAV1)
inactive: [1] -0.029 | volasertib -0.016 | [2] 0 | epoxomicin 0.048 | [3] 0.031 | [4] 0.051 | [5] -0.037 | [6] -0.081 | saracatinib 0.019 | sotrastaurin 0.016 | Tubastatin A -0.024 | [7] 0.052 | defactinib -0.036 | rucaparib 0.121 | [8] -0.035 | encorafenib -0.034 | [9] -0.008

PPP6R1 (UniProt Q9UPN7)
active: volasertib -0.297
inactive: [1] -0.098 | [2] 0 | epoxomicin -0.033 | [3] 0.026 | [4] 0.053 | [5] -0.007 | [6] -0.048 | saracatinib 0.058 | sotrastaurin -0.064 | Tubastatin A -0.08 | [7] 0.038 | defactinib -0.058 | rucaparib -0.013 | [8] -0.044 | encorafenib 0.034 | [9] -0.027

PPP3CC isoform 3 (UniProt P48454)
inactive: [1] 0.032 | volasertib -0.043 | [2] 0.003 | epoxomicin 0.039 | [10] 0.003 | [3] 0.033 | [4] -0.036 | rosiglitazone 0.021 | [5] -0.004 | [6] 0.053 | saracatinib 0.025 | sotrastaurin 0.029 | alvocidib -0.008 | Tubastatin A -0.011 | [7] 0.027 | defactinib -0.009 | rucaparib -0.024 | [8] -0.017 | encorafenib -0.012 | [9] 0.004

PPP1R13L (UniProt Q8WUF5)
inactive: [1] -0.022 | volasertib -0.06 | [2] 0.069 | epoxomicin -0.376 | [3] 0.047 | [4] -0.02 | rosiglitazone 0.099 | [6] 0.146 | Tubastatin A -0.022 | defactinib -0.126 | rucaparib -0.107 | encorafenib 0.039 | [9] -0.135

PRMT6 (UniProt Q96LA8)
inactive: [1] -0.01 | volasertib -0.015 | [2] 0.028 | epoxomicin -0.032 | [10] 0.005 | [3] -0.016 | [4] 0.06 | rosiglitazone 0.102 | [5] -0.255 | [6] 0.054 | saracatinib 0.034 | alvocidib -0.038 | Tubastatin A 0.001 | [7] -0.001 | defactinib 0.05 | rucaparib -0.012 | [8] 0.008 | encorafenib 0.041 | [9] -0.152

PPP2R5E (UniProt Q16537)
inactive: [2] -0.025 | epoxomicin -0.034 | [3] -0.165 | [4] 0.018 | [5] -0.048 | saracatinib -0.077 | sotrastaurin 0.012 | Tubastatin A 0.005 | [7] 0.083 | defactinib -0.025 | rucaparib -0.008 | [8] 0.074 | encorafenib 0.021 | [9] -0.017
active: [1] -0.259 | volasertib -0.404 | [6] -0.99

PRG2 (UniProt P13727)
inactive: [1] 0.154 | volasertib 0.161 | epoxomicin -0.128 | [10] 0.048 | [4] -0.14 | [5] 0.041 | saracatinib -0.066 | alvocidib 0.1 | Tubastatin A -0.023 | [7] -0.038 | defactinib -0.166 | rucaparib 0.036 | [8] -0.036 | encorafenib -0.156 | [9] -0.054

PPP2R3C (UniProt Q969Q6)
inactive: [1] 0.21 | Tubastatin A -0.05 | rucaparib -0.049 | encorafenib -0.142
